No constants are given. Whether binding was seen depends on the method and setting. In cells and extracts the contact can be indirect. Some entries that bind do so weakly or less than the wild type. Sequences can lack the tags named with a protein.
Molecular target: GFP-NSP8 (SARS-CoV-2 nonstructural protein 8) (SARS-CoV-2) (UniProt P0DTD1)
Experiment: co-IP

B1: full-length Flag-MDA5 (melanoma differentiation-associated gene-5) (protein, UniProt Q9BYX4 1-1025)
chain: MSNGYSTDENFRYLISCFRARVKMYIQVEPVLDYLTFLPAEVKEQIQRTVATSGNMQAVELLLSTLEKGVWHLGWTREFVEALRRTGSPLAARYMNPELTDLPSPSFENAHDEYLQLLNLLQPTLVDKLLVRDVLDKCMEEELLTIEDRNRIAAAENNGNESGVRELLKRIVQKENWFSAFLNVLRQTGNNELVQELTGSDCSESNAEIENLSQVDGPQVEEQLLSTTVQPNLEKEVWGMENNSSESSFADSSVVSESDTSLAEGSVSCLDESLGHNSNMGSDSGTMGSDSDEENVAARASPEPELQLRPYQMEVAQPALEGKNIIICLPTGSGKTRVAVYIAKDHLDKKKKASEPGKVIVLVNKVLLVEQLFRKEFQPFLKKWYRVIGLSGDTQLKISFPEVVKSCDIIISTAQILENSLLNLENGEDAGVQLSDFSLIIIDECHHTNKEAVYNNIMRHYLMQKLKNNRLKKENKPVIPLPQILGLTASPGVGGATKQAKAEEHILKLCANLDAFTIKTVKENLDQLKNQIQEPCKKFAIADATREDPFKEKLLEIMTRIQTYCQMSPMSDFGTQPYEQWAIQMEKKAAKEGNRKERVCAEHLRKYNEALQINDTIRMIDAYTHLETFYNEEKDKKFAVIEDDSDEGGDDEYCDGDEDEDDLKKPLKLDETDRFLMTLFFENNKMLKRLAENPEYENEKLTKLRNTIMEQYTRTEESARGIIFTKTRQSAYALSQWITENEKFAEVGVKAHHLIGAGHSSEFKPMTQNEQKEVISKFRTGKINLLIATTVAEEGLDIKECNIVIRYGLVTNEIAMVQARGRARADESTYVLVAHSGSGVIEHETVNDFREKMMYKAIHCVQNMKPEEYAHKILELQMQSIMEKKMKTKRNIAKHYKNNPSLITFLCKNCSVLACSGEDIHVIEKMHHVNMTPEFKELYIVRENKALQKKCADYQINGEIICKCGQAWGTMMVHKGLDLPCLKIRNFVVVFKNNSTKKQYKKWVELPITFPNLDYSECCLFSDED
binding: binds

From doi:10.1101/2020.08.12.247767
